Measured values published in patent US10000469B2, “Heat shock protein 70 (hsp-70) receptor ligands” (Duke University, priority 2014, dated 2018).
Some entries share one result that the patent states for a list of compounds. At least one structure is not confirmed: it was looked up by name or label, or the drawing left a doubt.

By UniProt entry, the sequences of proteins in these tests, tags left out.
UniProt P0DMV8, whole entry: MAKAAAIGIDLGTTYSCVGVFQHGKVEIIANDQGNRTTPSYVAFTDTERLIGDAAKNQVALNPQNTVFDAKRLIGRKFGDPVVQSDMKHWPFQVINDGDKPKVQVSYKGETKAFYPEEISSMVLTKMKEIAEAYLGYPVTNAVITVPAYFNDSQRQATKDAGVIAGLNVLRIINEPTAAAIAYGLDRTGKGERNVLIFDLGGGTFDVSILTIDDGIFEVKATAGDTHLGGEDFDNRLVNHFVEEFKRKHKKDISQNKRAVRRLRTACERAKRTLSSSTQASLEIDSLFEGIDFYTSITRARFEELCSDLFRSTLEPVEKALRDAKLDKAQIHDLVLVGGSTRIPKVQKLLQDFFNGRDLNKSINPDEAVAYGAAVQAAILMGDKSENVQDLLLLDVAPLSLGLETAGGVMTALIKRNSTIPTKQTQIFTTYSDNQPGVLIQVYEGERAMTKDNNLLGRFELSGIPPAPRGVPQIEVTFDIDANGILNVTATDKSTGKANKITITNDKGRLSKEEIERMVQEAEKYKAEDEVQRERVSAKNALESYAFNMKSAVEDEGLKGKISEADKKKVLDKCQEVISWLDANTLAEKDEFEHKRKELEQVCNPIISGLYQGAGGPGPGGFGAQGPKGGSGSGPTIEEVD

Target: Hsp70i (Homo sapiens, UniProt P0DMV8)
Experiment: Thermofluor assay, purified Hsp70i
Format: binding
Parameters: Full length Hsp70 (black arrow) and tryptic fragments (blue arrows); His tag (cleaved yes); made in house
Conditions: incubation of purified Hsp70i with nucleotide, FIG. 4B
Procedure: Protein Purification: Plasmids were provided for human HSPA1A, HSPA8, and HSPA1A C306D. Plasmids were transformed in Rosetta competent cells and single colonies were picked from streaked LB/ampicillin/chloramphenicol plates. Cultures were grown at 37° C. for 4-6 hours, were cooled to 15° C. and expression was induced overnight with 200 uM isopropyl 1-thio-β-D-galactopyranoside. Cells were pelleted and resuspended in Ni-lysis buffer (50 mM Na2HPO4, 300 mM NaCl, 10 mM Imidazole, 0.05% Tween-20) supplemented with Complete Mini protease inhibitor tablets (Roche, Mannheim, Germany) and […], and then sonicated. The cells were again pelleted and the supernatant was incubated with complete His-Tag purification resin (Roche, Mannheim, Germany) for 5 hours at 4° C. The resin was washed with Ni-wash buffer (50 mM Na2HPO4, 300 mM NaCl, 20 mM Imidazole, 0.05% Tween-20) and eluted with Ni-elution buffer (50 mM Na2HPO4, 300 mM NaCl, 250 mM Imidazole, 0.05% Tween-20). […]
Thermofluor Assay: SYPRO orange (Molecular Probes, Eugene, Oreg.) was diluted 1:1000 in 25 mM HEPES, 5 mM MgCl2, 10 mM KCl (pH 7.5) and purified Hsp70i, Hsc70, Hsp70i C306, or Hsp90, was then added to a final dilution of 0.04 mg/ml. […] A melt curve protocol (25° C. to 90° C., increasing 0.5° C. and a plate reading every 30 seconds) was run on a CFX384 Touch™ Real-Time PCR Detection System (BioRad). […]

Nc1ncnc2c1ncn2[C@@H]1O[C@H](COP(=O)(O)OP(=O)(O)O)[C@@H](O)[C@H]1O [ADP, reference compound]
increase of the Tm of Hsp70i: 4-5 °C
